Measurements taken from paper PMC7498331.
These are yes or no findings as the source states them, for the method shown. Binding seen in cells or lysates may run through a third protein. Binding can be weak; no strength is given.

biological target: aminoterminal myc-tagged Rnf40 (UniProt O75150); assay: co-IP; whole cell extracts of transfected HEK293T cells containing aminoterminal myc-tagged Rnf40 and Egr2 fragments; precipitation with anti-myc antibodies; western blot

Q: With “Egr2, amino acids 1-216 (from UniProt P51774-1) (domain or fragment)” as the substance, how does the binding read?
A: no binding

Q: For “Egr2, amino acids 197-420 (from UniProt P51774-2) (domain or fragment)”, which binding is on record?
A: binds

biological target: Egr2 (UniProt P51774); assay: co-IP; whole cell extracts of transfected HEK293T cells diluted in TEN buffer; precipitation with anti-Egr2 antibodies (pre-immune serum as control) and protein A sepharose overnight at 4°C; western blot for Rnf40, Rnf20, myc or HA

Q: Which binding does the source give for “HA-tagged Rnf20, amino acids 1-160 (from UniProt Q5VTR2 1-160) (domain or fragment)” here?
A: no binding

Q: How did the binding turn out when “HA-tagged Rnf20, amino acids 1-550 (from UniProt Q5VTR2 1-550) (domain or fragment)” was run?
A: no binding

Q: With “HA-tagged Rnf20, amino acids 140-550 (from UniProt Q5VTR2 140-550) (domain or fragment)” as the substance, how does the binding read?
A: no binding

Q: How did the binding turn out when “HA-tagged Rnf20, amino acids 530-975 (from UniProt Q5VTR2 530-975) (domain or fragment)” was run?
A: binds

Q: How did the binding turn out when Rnf20 (from UniProt Q5VTR2 1-975) was run?
A: binds

Q: Rnf40 (from UniProt O75150-1 1-1001) was tested. Which binding did it give?
A: binds

Q: How did the binding turn out when “myc-tagged Rnf40, amino acids 160-620 (from UniProt O75150-1 160-620) (domain or fragment)” was run?
A: binds

Q: “myc-tagged Rnf40, amino acids 600-800 (from UniProt O75150-1 600-800) (domain or fragment)” was tested. Which binding did it give?
A: no binding

Q: Which binding does the source give for “myc-tagged Rnf40, amino acids 780-1001 (from UniProt O75150-1 780-1001) (domain or fragment)” here?
A: no binding

Q: For “myc-tagged Rnf40, first 180 amino acids (from UniProt O75150-1 1-180) (domain or fragment)”, which binding is on record?
A: binds

Q: “myc-tagged Rnf40, first 620 amino acids (from UniProt O75150-1 1-620) (domain or fragment)” was tested. Which binding did it give?
A: binds
